Each structure is given as a SMILES string. Where “and” joins values, the source holds several entries; their conditions need not be identical. Equal values may be shown once. This is one part of the list. Several reference drugs read as weak here; read low effects with care.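 Prematurely aging human mesenchymal stem cells without the Werner syndrome gene were monitored by automated live-cell imaging over three biological repeats. The top twenty drugs for increasing growth versus vehicle moved forward; no fixed cutoff was specified.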

This assay deals with Werner syndrome hMSCs (WRN-/-). As to the kind of experiment: relative cell density (fold change vs vehicle control); higher = more proliferation (geroprotective). To be noted: concentration (umol/L): 1, 6 days.

For the setting “vehicle: DMSO”, `Cc1cc(Nc2ncc(Cl)c(Nc3ccccc3S(=O)(=O)C(C)C)n2)c(OC(C)C)cc1C1CCNCC1` gave a relative cell density of 1.21.

Turning to `C[C@@H](Oc1cc(-c2cnn(C3CCNCC3)c2)cnc1N)c1c(Cl)ccc(F)c1Cl`, the relative cell density (vehicle: DMSO) was found to be 0.865.

As to `CC[C@H](C)C(=O)O[C@H]1C[C@H](O)C=C2C=C[C@H](C)[C@H](CC[C@@H](O)C[C@@H](O)CC(=O)O)[C@H]21`, the relative cell density (vehicle: DMSO) worked out at 0.954.

Turning to `Cc1cccn2c(=O)c(-c3nnn[nH]3)cnc12`, the relative cell density (vehicle: Water) stood at 0.75.

In the case of `CC1=C(C(=O)O)N2C(=O)[C@@H](NC(=O)[C@H](N)c3ccccc3)[C@H]2SC1`, the relative cell density (vehicle: Water) was 1.04.

As for `CC(C)(C)NCC(O)COc1cccc2c1CC(O)C(O)C2` (stereo not drawn), for the setting “vehicle: DMSO”, the relative cell density was 1.21.

Where the note is “vehicle: DMSO”, `Nc1ccccc1NC(=O)c1ccc(CNc2nccc(-c3cccnc3)n2)cc1` registered a relative cell density of 0.606.

Take `COc1cc2c(cc1Cc1cccc(Cl)c1F)c(=O)c(C(=O)O)cn2[C@H](CO)C(C)C`: the relative cell density (vehicle: DMSO) worked out at 1.07.

Molecule `COc1ccc2c(c1)c(CC(=O)OCC(=O)O)c(C)n2C(=O)c1ccc(Cl)cc1` gave a relative cell density (vehicle: DMSO) of 0.957.

With `Cc1nccn1CC1CCc2c(c3ccccc3n2C)C1=O` (stereo not drawn), where the note is “vehicle: DMSO”, the relative cell density was 0.993 and 1.23.

`CC(=O)NC[C@H]1CN(c2ccc(N3CCOCC3)c(F)c2)C(=O)O1`: the relative cell density (vehicle: DMSO) was found to be 1.2.

Where the note is “vehicle: DMSO”, `CC(=O)O[C@]1(C(C)=O)CC[C@H]2[C@@H]3C=C(C)C4=CC(=O)CC[C@]4(C)[C@H]3CC[C@@]21C` came in with a relative cell density of 0.953.

On to `C=C1[C@H](CO)[C@@H](O)C[C@@H]1n1cnc2c(=O)[nH]c(N)nc21`, for which the relative cell density (vehicle: DMSO) was 1.24.

`CN(C)C(=O)c1cc2cnc(Nc3ccc(N4CCNCC4)cn3)nc2n1C1CCCC1` gave a relative cell density (vehicle: DMSO) of 1.1.

`CC/C=C(\C(=O)N[C@@H]1C(=O)N2C(C(=O)OCOC(=O)C(C)(C)C)=C(COC(N)=O)CS[C@H]12)c1csc(N)n1` showed a relative cell density (vehicle: DMSO) of 1.19.

Regarding `Cc1c(C)c2c(c(C)c1O)CCC(C)(CCCC(C)CCCC(C)CCCC(C)C)O2` (stereo not drawn), the relative cell density (vehicle: DMSO) turned out to be 1.33.

Molecule `Nc1nc(=O)[nH]cc1F` returned a relative cell density (vehicle: DMSO) of 1.13.

For the molecule `CC[C@@]1(O)C(=O)OCc2c1cc1n(c2=O)Cc2cc3c(CN(C)C)c(O)ccc3nc2-1`, under “vehicle: DMSO”, the relative cell density was found to be 0.052.

Under “vehicle: DMSO”, `CCOC(=O)N[C@@H]1CC[C@@H]2[C@@H](C1)C[C@H]1C(=O)O[C@H](C)[C@H]1[C@H]2/C=C/c1ccc(-c2cccc(F)c2)cn1` returned a relative cell density of 1.18.

In the case of `Cc1cc(Nc2cc(CN3CCOCC3)c3nc(C)c(Cc4ccc(Cl)cc4F)n3n2)n[nH]1`, the relative cell density (vehicle: DMSO) worked out at 0.888.

In turn, `Nc1nnc(-c2cccc(Cl)c2Cl)c(N)n1` gave a relative cell density (vehicle: DMSO) of 1.28.

Molecule `CC(=O)NC(CCC(N)=O)C(=O)O` (stereo not drawn) came in with a relative cell density (vehicle: DMSO) of 1.12.

`CC(=O)[O-].[K+]` displayed a relative cell density (vehicle: DMSO) of 1.24.

`CCN1CCC[C@H]1CNC(=O)c1cc(S(N)(=O)=O)ccc1OC` yielded a relative cell density (vehicle: DMSO) of 1.12.

Regarding `Nc1ccc(S(N)(=O)=O)cc1`, the relative cell density (vehicle: DMSO) was determined as 1.21.

`CCOc1nc2cccc(C(=O)OC(C)OC(=O)OC3CCCCC3)c2n1Cc1ccc(-c2ccccc2-c2nn[nH]n2)cc1` (stereo not drawn) had a relative cell density (vehicle: DMSO) of 1.33.

For `CCCNS(=O)(=O)Nc1ncnc(OCCOc2ncc(Br)cn2)c1-c1ccc(Br)cc1`, the relative cell density (vehicle: DMSO) was 1.03.

As to `CC[C@]12CCCN3CCc4c(n(c5ccccc45)[C@@](O)(C(=O)OC)C1)[C@@H]32`, the relative cell density (vehicle: Water) is 0.73.

Molecule `CCOC(=O)c1ccc(C#Cc2ccc3c(c2)C(C)(C)CCS3)nc1` yielded a relative cell density (vehicle: DMSO) of 1.14.

The molecule `CC(C)(C)C#Cc1cc(N(C(=O)[C@H]2CC[C@H](C)CC2)[C@H]2CC[C@H](O)CC2)c(C(=O)O)s1` yielded a relative cell density (vehicle: DMSO) of 1.33.

The molecule `CCC(C)(C)c1ccc(CC(C)CN2C[C@@H](C)O[C@@H](C)C2)cc1` (stereo partly drawn) had a relative cell density (vehicle: DMSO) of 0.95.

Molecule `O=c1[nH]c(=O)n([C@H]2C[C@H](O)[C@@H](CO)O2)cc1/C=C/Br` showed a relative cell density (vehicle: DMSO) of 1.51.

On to `NCCNc1ccc(NCCN)c2c1C(=O)c1ccncc1C2=O`, for which the relative cell density (vehicle: DMSO) came to 0.913.

As for `Cn1c(=O)c2c(ncn2CC(O)CO)n(C)c1=O` (stereo not drawn), the relative cell density (vehicle: DMSO) came to 1.13.

In the case of `CCCc1nc(C(C)(C)O)c(C(=O)OCc2oc(=O)oc2C)n1Cc1ccc(-c2ccccc2-c2nnn[nH]2)cc1`, under “vehicle: DMSO”, the relative cell density amounted to 1.

The molecule `NC(=O)c1cccnc1` returned a relative cell density (vehicle: DMSO) of 1.48.

Under “vehicle: DMSO”, `Nc1nccs1` registered a relative cell density of 0.824.

Molecule `S=c1nc[nH]c2nc[nH]c12` displayed a relative cell density (vehicle: DMSO) of 1.03.

As for `CCCCCCCCCCCCCCCC[N+](C)(C)C`, the relative cell density (vehicle: DMSO) was determined as 0.449.

`C=CCN1CCCC1CNC(=O)c1cc2nn[nH]c2cc1OC` (stereo not drawn): the relative cell density (vehicle: DMSO) was 0.877.

`NC(=O)[C@@H](CCC(F)(F)F)N(Cc1ccc(-c2ncon2)cc1F)S(=O)(=O)c1ccc(Cl)cc1` returned a relative cell density (vehicle: DMSO) of 0.96.

For `CC1=C(C(=O)O)N2C(=O)[C@@H](NC(=O)[C@H](N)c3ccc(O)cc3)[C@H]2SC1`, where the note is “vehicle: DMSO”, the relative cell density came out at 0.822.

For `CC(C)(Oc1ccc(C2CC2(Cl)Cl)cc1)C(=O)O` (stereo not drawn), where the note is “vehicle: DMSO”, the relative cell density was 1.24.

For `CCN(CC)C(=O)N1CCN(C)CC1`, under “vehicle: DMSO”, the relative cell density came to 1.41.

`O=C(O)c1cc(O)c(O)c(O)c1`: the relative cell density (vehicle: DMSO) was 1.62.

Under “vehicle: Water”, `O=P(O)(O)C(O)(Cc1cccnc1)P(=O)(O)O` came in with a relative cell density of 0.632.

Regarding `CCN(CCCc1ccccc1)CCCc1ccccc1`, the relative cell density (vehicle: DMSO) was found to be 1.63.

For `COc1cc2c(cc1OC)CN(CCc1ccc(NC(=O)c3cccc4c(=O)c5cccc(OC)c5[nH]c34)cc1)CC2`, the relative cell density (vehicle: DMSO) came to 0.977.

In turn, `CC[C@]1(O)C[C@@H]2CN(CCc3c([nH]c4ccccc34)[C@@](C(=O)OC)(c3cc4c(cc3OC)N(C)[C@H]3[C@@](O)(C(=O)OC)[C@H](OC(C)=O)[C@]5(CC)C=CCN6CC[C@]43[C@@H]65)C2)C1` came in with a relative cell density (vehicle: DMSO) of 1.13.

Where the note is “vehicle: DMSO”, `CCc1cc(/C(C)=N/OCc2ccc(C3CCCCC3)c(C(F)(F)F)c2)ccc1CN1CC(C(=O)O)C1` displayed a relative cell density of 0.887.

The molecule `Clc1ccc(COC(Cn2ccnc2)c2ccc(Cl)cc2Cl)cc1` (stereo not drawn) showed a relative cell density (vehicle: DMSO) of 1.

Turning to `NC(=O)NO`, the relative cell density (vehicle: DMSO) was found to be 1.13.

Turning to `Clc1ccccc1C(c1ccccc1)(c1ccccc1)n1ccnc1`, the relative cell density (vehicle: DMSO) was determined as 1.04.

As to `O=S(=O)(O)CCSSCCS(=O)(=O)O`, the relative cell density (vehicle: DMSO) stood at 1.28.

Consider `CO[C@H]1C(=O)[C@]2(C)[C@@H](OC)C[C@H]3OC[C@@]3(OC(C)=O)[C@H]2[C@H](OC(=O)c2ccccc2)[C@]2(O)C[C@H](OC(=O)[C@H](O)[C@@H](NC(=O)OC(C)(C)C)c3ccccc3)C(C)=C1C2(C)C`, for which the relative cell density (vehicle: DMSO) is 0.446.

On to `Nc1nc(=O)c2c([nH]1)NCC(CNc1ccc(C(=O)N[C@@H](CCC(=O)O)C(=O)O)cc1)N2C=O` (stereo partly drawn), for which the relative cell density (vehicle: Water) worked out at 1.12.

In turn, `Oc1c(Cl)cc(Cl)cc1Sc1cc(Cl)cc(Cl)c1O` returned a relative cell density (vehicle: DMSO) of 1.36.

Turning to `NC[C@H]1CC[C@H](C(=O)O)CC1`, the relative cell density (vehicle: Water) amounted to 1.05.

For the molecule `CCCCOc1ccc(CC(=O)NO)cc1`, the relative cell density (vehicle: DMSO) was 1.09.

The molecule `CC(=O)OC(C)C[N+](C)(C)C` (stereo not drawn) had a relative cell density (vehicle: DMSO) of 1.02.

As to `Cc1ccc(O)c([C@H](CCN(C(C)C)C(C)C)c2ccccc2)c1`, the relative cell density (vehicle: DMSO) turned out to be 1.08.

As to `O=C(O)c1cc(=O)c2c(OCC(O)COc3cccc4oc(C(=O)O)cc(=O)c34)cccc2o1`, under “vehicle: Water”, the relative cell density worked out at 1.03.

As for `O[C@@H]1CO[C@H]2[C@@H]1OC[C@@H]2O`, under “vehicle: DMSO”, the relative cell density was found to be 1.07.

These data come from the supplement of paper PMC9226226.
